{"source": "paper doi:10.1101/2020.07.20.211441", "biological_target": "T1, XPA-binding protein (XAB)-2, biotin-tagged knock-in (mouse) (UniProt Q9DCD2)", "T1 sequence (chain, biotin on the Avitag (by the BirA ligase in vivo))": "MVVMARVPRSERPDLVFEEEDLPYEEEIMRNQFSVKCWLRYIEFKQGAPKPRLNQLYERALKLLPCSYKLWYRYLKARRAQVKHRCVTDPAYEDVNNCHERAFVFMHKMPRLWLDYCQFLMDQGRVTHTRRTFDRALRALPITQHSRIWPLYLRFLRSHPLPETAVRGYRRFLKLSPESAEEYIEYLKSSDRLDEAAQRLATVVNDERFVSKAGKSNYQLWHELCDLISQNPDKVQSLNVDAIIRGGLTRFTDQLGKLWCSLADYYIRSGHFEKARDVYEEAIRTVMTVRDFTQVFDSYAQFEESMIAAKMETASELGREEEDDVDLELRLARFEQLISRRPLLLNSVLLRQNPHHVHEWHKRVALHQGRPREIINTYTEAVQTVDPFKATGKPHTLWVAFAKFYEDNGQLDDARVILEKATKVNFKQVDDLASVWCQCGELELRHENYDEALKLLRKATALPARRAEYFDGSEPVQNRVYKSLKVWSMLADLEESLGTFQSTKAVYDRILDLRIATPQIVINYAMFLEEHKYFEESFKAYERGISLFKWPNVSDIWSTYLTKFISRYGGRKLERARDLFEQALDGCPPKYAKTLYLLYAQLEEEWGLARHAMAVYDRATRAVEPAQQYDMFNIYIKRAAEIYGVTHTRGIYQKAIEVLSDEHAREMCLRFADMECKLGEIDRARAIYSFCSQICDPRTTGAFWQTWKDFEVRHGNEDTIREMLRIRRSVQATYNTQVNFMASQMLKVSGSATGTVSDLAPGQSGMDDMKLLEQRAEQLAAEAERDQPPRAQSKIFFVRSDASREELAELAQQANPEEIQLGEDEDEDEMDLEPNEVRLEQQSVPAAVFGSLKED", "assay": "affinity purification with mass spectrometry", "note": "These are yes or no findings as the source states them, for the method shown. In cells and extracts the contact can be indirect. These calls come from enrichment with a bait or labelling near it, and not all partners need be listed. Sequences can lack the tags named with a protein.", "data": [{"binder": "NUPl2 (protein, UniProt Q8CIC2 1-420) MTICQFFLQGRCRFGDRCWNEHPGARGAGGARQPPPQQQPPSGNNRRGWNASSQRYSNVIQPSSFPKSTPWGGSRDQDKPPFGSFDSGASTSRGFGSSQNPFASPLSDEQKDEKKLLEGIVKDVEVWESSGQWMFSVYSPVRKKPNISGFTDISPEELRLEYHNFLTSNNLQSYLNSVQQLVSQWRNRINELKNLTMSTKGALLSDVKDGVSQAVPAFGFGSKQAGSFGSPGFPVNNSSSSTVQNFSFKTSPGLATPPSGSTSVFGSHPAFGAGPSAGSSISSSTPAFGLGKPEATSAASFSFKSPEASSFASPGFSGFPASMAASPSGSTTAPPLRSGSSVVGFGSPSPHSQAVFAKPSTDVFGGSGISTSVLASGAADNALFTPRDQLMKEELEQFQSQRFTLGKIPLKPPPVELLTV", "values": [{"measurement": "binding", "result": "binds"}]}, {"binder": "RAD21 (protein, UniProt Q61550 1-635) MFYAHFVLSKRGPLAKIWLAAHWDKKLTKAHVFECNLESSVESIISPKVKMALRTSGHLLLGVVRIYHRKAKYLLADCNEAFIKIKMAFRPGVVDLPEENREAAYNAITLPEEFHDFDQPLPDLDDIDVAQQFSLNQSRVEEITMREEVGNISILQENDFGDFGMDDREIMREGSAFEDDDMLVSTSASNLLLEPEQSTSNLNEKMNHLEYEDQYKDDNFGEGNDGGILDDKLISNNDGGIFDDPPALSEAGVMLPEQPAHDDMDEDDNGSLGGPDSPDSVDPVEPMPTMTDQTTLVPNEEEAFALEPIDITVKETKAKRKRKLIVDSVKELDSKTIRAQLSDYSDIVTTLDLAPPTKKLMMWKETGGVEKLFFLPAQPLWNNRLLKLFTRCLTPLVPEDLRKRRKGGEADNLDEFLKEFENPEVPREEQQPQQQQPQPQRDVIDEPIIEEPSRLQDSVMEASRTTIEESAMPPPPPQGVKRKAGQIDPEPSIPPQQVEQMEIPPVELPPEEPPNICQLIPELELLPEKEKEKEKEKEEEEEEEDEDASGGDQDQEERRWNKRTQQMLHGLQRALAKTGAESISLLELCRNTNRKQAAAKFYSFLVLKKQQAIELTQEEPYSDIIATPGPRFHII", "values": [{"measurement": "binding", "result": "binds"}]}, {"binder": "SMC1a (protein, UniProt Q9CU62 1-1233) MGFLKLIEIENFKSYKGRQIIGPFQRFTAIIGPNGSGKSNLMDAISFVLGEKTSNLRVKTLRDLIHGAPVGKPAANRAFVSMVYSEEGAEDRTFARVIVGGSSEYKINNKVVQLHEYSEELEKLGILIKARNFLVFQGAVESIAMKNPKERTALFEEISRSGELAQEYDKRKKEMVKAEEDTQFNYHRKKNIAAERKEAKQEKEEADRYQRLKDEVVRAQVQLQLFKLYHNEVEIEKLNKELASKNKEIEKDKKRMDKVEDELKEKKKELGKMMREQQQIEKEIKEKDSELNQKRPQYIKAKENTSHKIKKLEAAKKSLQNAQKHYKKRKGDMDELEKEMLSVEKARQEFEERMEEESQSQGRDLTLEENQVKKYHRLKEEASKRAATLAQELEKFNRDQKADQDRLDLEERKKVETEAKIKQKLREIEENQKRIEKLEEYITTSKQSLEEQKKLEGELTEEVEMAKRRIDEINKELNQVMEQLGDARIDRQESSRQQRKAEIMESIKRLYPGSVYGRLIDLCQPTQKKYQIAVTKVLGKNMDAIIVDSEKTGRDCIQYIKEQRGEPETFLPLDYLEVKPTDEKLRELKGAKLVIDVIRYEPPHIKKALQYACGNALVCDNVEDARRIAFGGHQRHKTVALDGTLFQKSGVISGGASDLKAKARRWDEKAVDKLKEKKERLTEELKEQMKAKRKEAELRQVQSQAHGLQMRLKYSQSDLEQTKTRHLALNLQEKSKLESELANFGPRINDIKRIIQSREREMKDLKEKMNQVEDEVFEEFCREIGVRNIREFEEEKVKRQNEIAKKRLEFENQKTRLGIQLDFEKNQLKEDQDKVHMWEQTVKKDENEIEKLKKEEQRHMKIIDETMAQLQDLKNQHLAKKSEVNDKNHEMEEIRKKLGGANKEMTHLQKEVTAIETKLEQKRSDRHNLLQACKMQDIKLPLSKGTMDDISQEEGSSQGEESVSGSQRTSSIYAREALIEIDYGDLCEDLKDAQAEEEIKQEMNTLQQKLNEQQSVLQRIAAPNMKAMEKLESVRDKFQETSDEFEAARKRAKKAKQAFEQIKKERFDRFNACFESVATNIDEIYKALSRNSSAQAFLGPENPEEPYLDGINYNCVAPGKRFRPMDNLSGGEKTVAALALLFAIHSYKPAPFFVLDEIDAALDNTNIGKVANYIKEQSTCNFQAIVISLKEEFYTKAESLIGVYPEQGDCVISKVLTFDLTKYPDANPNPNEQ", "values": [{"measurement": "binding", "result": "binds"}]}, {"binder": "STAG1 (protein, UniProt Q9D3E6 1-1258) MITSELPVLQDSTNETTAHSDAGSELEETEVKGKRKRGRPGRPPSTNKKPRKSPGEKSRIEAGIRGAGRGRANGHPQQNGDGDPVTLFEVVKLGKSAMQSVVDDWIELYKQDRDIALLDLINFFIQCSGCRGTVRIEMFRNMQNAEIIRKMTEEFDEDSGDYPLTMPGPQWKKFRSNFCEFIGVLIRQCQYSIIYDEYMMDTVISLLTGLSDSQVRAFRHTSTLAAMKLMTALVNVALNLSIHQDNTQRQYEAERNKMIGKRANERLELLLQKRKELQENQDEIENMMNSIFKGIFVHRYRDAIAEIRAICIEEIGVWMKMYSDAFLNDSYLKYVGWTLHDRQGEVRLKCLKALQSLYTNRELFPKLELFTNRFKDRIVSMTLDKEYDVAVEAIRLVTLILHGSEEALSNEDCENVYHLVYSAHRPVAVAAGEFLHKKLFSRHDPQAEEALAKRRGRNSPNGNLIRMLVLFFLESELHEHAAYLVDSLWESSQELLKDWECMTELLLEEPVQGEEAMSDRQESALIELMVCTIRQAAEAHPPVGRGTGKRVLTAKERKTQIDDRNKLTEHFIITLPMLLSKYSADAEKVANLLQIPQYFDLEIYSTGRMEKHLDALLKQIKFVVEKHVESDVLEACSKTYSILCSEEYTIQNRVDIARSQLIDEFVDRFNHSVEDLLQEGEEADDDDIYNVLSTLKRLTSFHNAHDLTKWDLFGNCYRLLKTGIEHGAMPEQIVVQALQCSHYSILWQLVKITDGSPSKEDLLVLRKTVKSFLAVCQQCLSNVNTPVKEQAFMLLCDLLMIFSHQLMTGGREGLQPLVFNPDTGLQSELLSFVMDHVFIDQDEENQSMEGDEEDEANKIEALHKRRNLLAAFSKLIIYDIVDMHAAADIFKHYMKYYNDYGDIIKETLSKTRQIDKIQCAKTLILSLQQLFNELVQEQGPNLDRTSAHVSGIKELARRFALTFGLDQIKTREAVATLHKDGIEFAFKYQNQKGQEYPPPNLAFLEVLSEFSSKLLRQDKKTVHSYLEKFLTEQMMERREDVWLPLISYRNSLVTGGEDDRMSVNSGSSSSKTSSVRSKKGRPPLHRKRVEDESLDNTWLNRTDTMIQTPGPLPTPQLTSTVLRENSRPMGEQIQEPESEHGSEPDFLHNPQMQISWLGQPKLEDLNRKDRTGMNYMKVRAGVRHAVRGLMEEDAEPIFEDVMMSSRSQLEDMNEEFEDTMVIDLPPSRNRRERAELRPDFFDSAAIIEDDSGFGMPMF", "values": [{"measurement": "binding", "result": "binds"}]}, {"binder": "STAG2 (protein, UniProt O35638 1-1231) MIAAPEIPTDFNLLQESETHFSSDTDFEDIEGKNQKQGKGKTCKKGKKGPAEKGKSGNGGGKPPSGSNRMNGHHQQNGVENMMLFEVVKMGKSAMQSVVDDWIESYKHDRDIALLDLINFFIQCSGCKGVVTAEMFRHMQNSEIIRKMTEEFDEDSGDYPLTMAGPQWKKFKSSFCEFIGVLVRQCQYSIIYDEYMMDTVISLLTGLSDSQVRAFRHTSTLAAMKLMTALVNVALNLSINMDNTQRQYEAERNKMIGKRANERLELLLQKRKELQENQDEIENMMNAIFKGVFVHRYRDAIAEIRAICIEEIGIWMKMYSDAFLNDSYLKYVGWTMHDKQGEVRLKCLTALQGLYYNKELNSKLELFTSRFKDRIVSMTLDKEYDVAVQAIKLLTLVLQSSEEVLTAEDCENVYHLVYSAHRPVAVAAGEFLYKKLFSRRDPEEDGLMKRRGRQGPNANLVKTLVFFFLESELHEHAAYLVDSMWDCATELLKDWECMNSLLLEEPLSGEEALTDRQESALIEIMLCTIRQAAECHPPVGRGTGKRVLTAKEKKTQLDDRTRITELFAVALPQLLAKYSVDAEKVTNLLQLPQYFDLEIYTTGRLEKHLDALLRQIRNIVEKHTDTDVLEACSKTYHALCNEEFTIFNRVDISRSQLIDELADKFNRLLEDFLQEGEEPDEDDAYQVLSTLKRITAFHNAHDLSKWDLFACNYKLLKTGIENGDMPEQIVIHALQCAHYVILWQLAKITESTSTKEDLLRLKKQMRVFCQICQHYLTNVNTTVKEQAFTILCDILMIFSHQIMSGGRDMLEPLVYTPDSSLQSELLSFILDHVFIEQDDDSNSADGQQEDEASKIEALHKRRNLLAAFCKLIVYTVVEMNTAADIFKQYMKYYNDYGDIIKETMSKTRQIDKIQCAKTLILSLQQLFNEMIQENGYNFDRSSSTFSGIKELARRFALTFGLDQLKTREAIAMLHKDGIEFAFKEPNPQGESHPPLNLAFLDILSEFSSKLLRQDKRTVYVYLEKFMTFQMSLRREDVWLPLMSYRNSLLAGGDDDTMSVISGMSSRGSTVRSKKSKPSTGKRKVVEGMQLALPEESSSSDSMWLSREQTLHTPVMMQTPQLTSTIMREPKRLRPEDSFMSVYPMQAEHHQTPLDYNRRGTSLMEDDEEPIVEDVMMSSEGRIEDLNEGMDFDTMDIDLPPSKNRRERTELKPDFFDPASIMDESVLGVSMF", "values": [{"measurement": "binding", "result": "binds"}]}, {"binder": "GNL3 (protein, UniProt Q8CI11 1-538) MKRPKLKKASKRMTCHKRYKIQKKVREHHRKLRKEAKKRGHKKPRKDPGVPNSAPFKEALLREAELRKQQLEELKQQQKLDRQKEQERKRKLEVSPGDEQSNVETREESDEPKRKKAKAGKQNPKKLHCQELKKVIEASDIVLEVLDARDPLGCRCPQIEEAVIQSGSKKLILVLNKSDLVPKENLENWLNYLNKELPTVVFKASTNLKNRKTFKIKKKKVVPFQSKICCGKEALWKLLGDFQQSCGKDIQVGVIGFPNVGKSSVINSLKQEWICNVGISMGLTRSMQIVPLDKQITIIDSPCLIISPCNSPTALALRSPASIEELRPLEAASAILSQADNEQVVLKYTVPEYKDSLHFFTKLAQRRGLHQKGGSPNVESAAKLVWSEWTGASLGYYCHPPASWNHSLHFNENIAAVMKKGFNLEELEKNNAHSIQVLKGPHLTNRILFRSSGLTNGILDEKDIVEESPRQTEDKQDADDQENGSGERNAEISDVAPVEETRELSPEQSTAGKPSDGSSALDRASQEDETYDFTTDYI", "values": [{"measurement": "binding", "result": "binds"}]}]}
